Laboratory results: PMC4499159

How the values were obtained:
PARP1 (human) = PARP1 (human) (UniProt P09874); assay: fluorescence titration; conditions: FAM-PARP1, slight increase ([…]), EC50 n.d.; 5'-phosphate on downstream primer; 50 mM HEPES pH 8.0, 100 mM NaCl, 4 mM DTT (+10 mM EDTA for APE1); labelled protein from 20 nM; temperature not stated; recombinant protein; residues 1-1014; protein details: FAM-labelled
[1] = biological target: AP endonuclease 1 (APE1) (human) (UniProt P27695); assay: fluorescence titration; conditions: FAM-APE1, 10 mM EDTA, slight increase ([…]), EC50 n.d.; 5'-phosphate on downstream primer; 50 mM HEPES pH 8.0, 100 mM NaCl, 4 mM DTT (+10 mM EDTA for APE1); labelled protein from 20 nM; temperature not stated; recombinant protein

Sequence: GGCGATTAAGTTGGG / AACGTCAGGGTCTTCC / GGAAGACCCTGACGTTACCCAACTTAATCGCC [gap-DNA]
- binding result (PARP1 (human)): binds
- binding result [1]: binds

Sequence: GGCGATTAAGTTGGGT / AACGTCAGGGTCTTCC / GGAAGACCCTGACGTTACCCAACTTAATCGCC [nick-DNA]
- binding result (PARP1 (human)): binds

Construct, isoform or probe ends are uncertain for at least one entry. At least one verdict was read from the data and is not stated in words by the source.
